Values quoted from earlier work as cited in patent US20130029381A1, “MICROORGANISMS FOR THE PRODUCTION OF 1,4-BUTANEDIOL, 4-HYDROXYBUTANAL, 4-HYDROXYBUTYRYL-COA, PUTRESCINE AND RELATED COMPOUNDS, AND METHODS RELATED THERETO” (GENOMATICA, INC., priority 2009, published 2013).
For at least one compound, name, drawing or mass did not settle the structure.

Target: T1, L(+)-lactate dehydrogenase from rabbit muscle (Oryctolagus cuniculus, UniProt P13491)
T1 construct: rabbit muscle; host or cells: rabbit muscle
Details: compared with that on pyruvate; cited from earlier work

| SMILES | Activity (%) of L(+)-lactate dehydrogenase from rabbit muscle [%] |
| --- | --- |
| O=C(O)CC(=O)C(=O)O [Oxaloacetate] | 33.1 |
| CC(=O)C(=O)O [Pyruvate] | 100.0 |
